No constants are given. Whether binding was seen depends on the method and setting. Binding seen in cells or lysates may run through a third protein. A result given as binding can be weak or reduced; the word gives no strength.
Target: extracellular matrix metalloproteinase inducer (EMMPRIN) (bovine (endogenous in BAECs)) (UniProt Q865R3)
Test: co-IP; BAEC lysates (1% NP-40, 0.1% SDS, 0.1% deoxycholate, pH 7.5) precipitated with goat anti-EMMPRIN antibody and Protein G, goat IgG as control; blotted for eNOS and GOLPH3; washed with 50 mM Tris-HCl pH 7.5, 0.1 mM EDTA, 0.1 mM EGTA; repeated with 150 mM NaCl in the wash buffer (Figure S2)

Sequences of proteins named here, by UniProt entry; tags and fusion partners are left off. A change or cut given only in a name is not applied to a line headed by its entry.
UniProt Q865R3: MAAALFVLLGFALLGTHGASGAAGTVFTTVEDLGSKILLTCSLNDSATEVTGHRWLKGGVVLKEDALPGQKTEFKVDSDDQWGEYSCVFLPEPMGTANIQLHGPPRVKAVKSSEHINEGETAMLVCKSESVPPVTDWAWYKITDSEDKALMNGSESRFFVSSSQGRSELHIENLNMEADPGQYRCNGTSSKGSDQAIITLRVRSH

Row | Binder | binding
1 | Endothelial nitric oxide synthase (eNOS) (enzyme, UniProt P29473 1-1205) MGNLKSVGQEPGPPCGLGLGLGLGLCGKQGPASPAPEPSRAPAPATPHAPDHSPAPNSPTLTRPPEGPKFPRVKNWELGSITYDTLCAQSQQDGPCTPRCCLGSLVLPRKLQTRPSPGPPPAEQLLSQARDFINQYYSSIKRSGSQAHEERLQEVEAEVASTGTYHLRESELVFGAKQAWRNAPRCVGRIQWGKLQVFDARDCSSAQEMFTYICNHIKYATNRGNLRSAITVFPQRAPGRGDFRIWNSQLVRYAGYRQQDGSVRGDPANVEITELCIQHGWTPGNGRFDVLPLLLQAPDEAPELFVLPPELVLEVPLEHPTLEWFAALGLRWYALPAVSNMLLEIGGLEFSAAPFSGWYMSTEIGTRNLCDPHRYNILEDVAVCMDLDTRTTSSLWKDKAAVEINLAVLHSFQLAKVTIVDHHAATVSFMKHLDNEQKARGGCPADWAWIVPPISGSLTPVFHQEMVNYILSPAFRYQPDPWKGSATKGAGITRKKTFKEVANAVKISASLMGTLMAKRVKATILYASETGRAQSYAQQLGRLFRKAFDPRVLCMDEYDVVSLEHEALVLVVTSTFGNGDPPENGESFAAALMEMSGPYNSSPRPEQHKSYKIRFNSVSCSDPLVSSWRRKRKESSNTDSAGALGTLRFCVFGLGSRAYPHFCAFARAVDTRLEELGGERLLQLGQGDELCGQEEAFRGWAKAAFQASCETFCVGEEAKAAAQDIFSPKRSWKRQRYRLSTQAEGLQLLPGLIHVHRRKMFQATVLSVENLQSSKSTRATILVRLDTAGQEGLQYQPGDHIGICPPNRPGLVEALLSRVEDPPPPTESVAVEQLEKGSPGGPPPSWVRDPRLPPCTLRQALTFFLDITSPPSPRLLRLLSTLAEEPSEQQELETLSQDPRRYEEWKWFRCPTLLEVLEQFPSVALPAPLLLTQLPLLQPRYYSVSSAPNAHPGEVHLTVAVLAYRTQDGLGPLHYGVCSTWLSQLKTGDPVPCFIRGAPSFRLPPDPYVPCILVGPGTGIAPFRGFWQERLHDIESKGLQPAPMTLVFGCRCSQLDHLYRDEVQDAQERGVFGRVLTAFSREPDSPKTYVQDILRTELAAEVHRVLCLERGHMFVCGDVTMATSVLQTVQRILATEGDMELDEAGDVIGVLRDQQRYHEDIFGLTLRTQEVTSRIRTQSFSLQERHLRGAVPWAFDPPGPDTPGP | binds
2 | Golgi phosphoprotein 3 (GOLPH3) (protein, UniProt Q1RMW9 1-298) MTSLTQRSSGLVQRRTEASRNAADKERAAGGGGGNDEDDAQSRRDEQDDDDKGDSKETRLTLMEEVLLLGLKDREGYTSFWNDCISSGLRGCMLIELALRGRLQLEACGMRRKSLLTRKVICKSDAPTGDVLLDEALKHVKETQPPETVQNWIELLSGETWNPLKLHYQLRNVRERLAKNLVEKGVLTTEKQNFLLFDMTTHPLTNNSIKQRLIKKVQEAVLDKWVNDPHRMDKRLLALLYLAHASDVLENAFAPLLDEQYDVATKRVRQLLDLDPEVECLKAGTNEVLWAVVAAFTK | binds
